In PubChem BioAssay AID2551 (National Center for Advancing Translational Sciences (NCATS), 2010):
Values joined by “and” are separate entries in the source; they are usually repeats but may differ in a detail not shown here. Equal entries are not always repeated. The campaign covered roughly 310,000 compounds. About 17,000 (5.5%) were called active. This list was built around the results that the source calls inconclusive (neither active nor inactive); the mix of calls is not that of the screen. Calls follow the shape of the dose curve; as a rule, active = well fitted inhibition curve with a large enough effect; inconclusive = small, poorly fitted or top-dose-only effect, or effect the other way; inactive = no such curve, though single readings can be large or run the other way. Potencies of inconclusive entries are doubtful fits and often do not repeat. *1 amine or outer side, *2 acyl side, *3 side chain or, on linkers, in order; H or OH if unused. Where a SMILES comes first, the peptide text is derived from it. Bridges are numbered along the chain shown (N, C = ends). Roman numbers before positions name the chains, in order. [ ]: non-standard residue; d: D form. Actinocin(9to1) = Cc1c2oc3c(C)ccc(C(=O)[*:1])c3nc-2c(C(=O)[*:2])c(N)c1=O; NMeV = CN[C@H](C(=O)O)C(C)C; Sar = CNCC(=O)O

Amino acid sequences for entries named in this document (tags omitted). A change or cut given only in a name is not applied to a line headed by its entry.
UniProt P51450: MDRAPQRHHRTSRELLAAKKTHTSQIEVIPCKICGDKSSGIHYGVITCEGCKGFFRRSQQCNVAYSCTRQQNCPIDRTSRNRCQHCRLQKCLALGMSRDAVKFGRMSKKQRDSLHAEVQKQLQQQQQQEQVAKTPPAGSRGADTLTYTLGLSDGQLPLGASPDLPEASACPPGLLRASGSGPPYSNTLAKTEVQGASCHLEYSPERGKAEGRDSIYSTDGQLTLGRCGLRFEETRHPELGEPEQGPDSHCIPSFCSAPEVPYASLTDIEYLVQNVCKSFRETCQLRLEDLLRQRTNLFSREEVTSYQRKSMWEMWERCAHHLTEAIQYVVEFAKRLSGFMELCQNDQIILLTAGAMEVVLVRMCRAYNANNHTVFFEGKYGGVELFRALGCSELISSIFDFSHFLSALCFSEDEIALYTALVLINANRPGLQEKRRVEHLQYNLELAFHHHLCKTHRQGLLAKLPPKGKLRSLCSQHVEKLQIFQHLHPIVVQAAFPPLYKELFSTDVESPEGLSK

molecular target: Nuclear receptor ROR-gamma (Mus musculus) (UniProt P51450); test: qHTS for inhibitors of ROR gamma transcriptional activity; conditions: Drosophila S2 Gal4-RORgamma UAS-luciferase reporter, 20 h; series mostly up to 53.6 µM; also: nearly all actives have a fitted effect of over 60% in size
In short: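 ROR gamma transcriptional activity was tracked as Gal4-UAS luciferase output in stably transfected Drosophila Schneider cells, with compound added 1 hr before 700 uM copper sulfate induction and a 20 hr ambient-temperature incubation.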
Potency is read from the fitted curve at half-maximal effect.

Potency, active:
C/C(=N\OCC(=O)N/N=C/c1ccc(C)cc1O)c1cccs1 0.501 µM
Cc1cc(C)n(-c2nc(SCCN(C)C)c3c4c(sc3n2)CCCC4)n1 2.82 µM
O=C(NNC(=S)NC(=O)c1cccc([N+](=O)[O-])c1)c1ccc(Br)cc1 11.2 µM
Cc1c2oc3c(C)ccc(C(=O)N[C@@H]4C(=O)N[C@H](C(C)C)C(=O)N5CCC[C@H]5C(=O)N(C)CC(=O)N(C)[C@@H](C(C)C)C(=O)O[C@@H]4C)c3nc-2c(C(=O)N[C@@H]2C(=O)N[C@H](C(C)C)C(=O)N3CCC[C@H]3C(=O)N(C)CC(=O)N(C)[C@@H](C(C)C)C(=O)O[C@@H]2C)c(N)c1=O (I: T[dV]P[Sar][NMeV] / II: T[dV]P[Sar][NMeV]; ester I:1-I:C, II:1-II:C; linker I:N-II:N via Actinocin(9to1)) 17.8 nM and 22.4 nM
Cc1csc(NC(=S)NC(=O)c2ccccc2)n1 2 µM
CCc1nnc(NC(=O)c2cc(-c3ccccn3)nc3ccc(Br)cc23)s1 20 µM

Potency, inactive:
Cc1cc(=O)[nH]c(-n2[nH]c(C)cc2=O)n1
C/C(=N\NC(=O)c1cnccn1)c1ccc([N+](=O)[O-])cc1
CC(=O)N1CCc2cc(S(=O)(=O)N3CCc4ccccc4C3)ccc21
CCOC(=O)N1CCN(CC(=O)Nc2ccc(Oc3ccccc3)cc2)CC1
CCOc1cc(C(=O)OCC(=O)NC(C)c2ccccc2)ccc1OCC(=O)N1CCOCC1 (stereo unspecified)
Cc1cc(=O)[nH]c(SCC(=O)c2ccc(O)c(O)c2)n1
C=CCc1ccc(OCC(O)CN2CCN(Cc3ccc(Cl)cc3)CC2)c(OC)c1 (stereo unspecified)
O=C(Cc1ccccc1)Nc1cccc(NC(=O)c2ccccc2)c1
CC(C)CNC(=O)COC(=O)c1c2c(nc3ccccc13)/C(=C/c1cccs1)CC2
CCOC(=O)C1=C(c2ccccc2)c2ccc(OC)cc2N(S(=O)(=O)C(F)(F)F)C1C(=O)OCC (stereo unspecified)

2 records drawn at random from those above, as already listed:
Potency, inactive:
C=CCc1ccc(OCC(O)CN2CCN(Cc3ccc(Cl)cc3)CC2)c(OC)c1 (stereo unspecified)
CCOC(=O)N1CCN(CC(=O)Nc2ccc(Oc3ccccc3)cc2)CC1

Following part:

Potency, inconclusive:
COc1ccc(CCNC(=O)C(=O)c2c[nH]c3ccccc23)cc1OC 11.2 µM [activator, single point]
O=C(O)c1ccc2c(c1)N(Cc1ccccc1)C(=O)c1ccccc1S2=O (stereo unspecified) 14.1 µM [inhibitor, single point]
S=c1[nH]nc(-c2ccc3ccccc3n2)n1-c1ccc2ncccc2c1 20 µM [inhibitor, single point]
CCOc1ccccc1NC(=O)C1CCN(S(C)(=O)=O)CC1 22.4 µM [inhibitor, single point]
CN1C(=O)c2ccc(NC(=O)C3CCCCC3)cc2C1=O 31.6 µM [activator, single point]
CCN(CC)c1nc2c(c(=O)[nH]c(=O)n2C)n1CCCc1ccccc1 35.5 µM [activator, single point]
Cc1ccc(Cn2ccc(=O)c(OCc3c(Cl)cccc3Cl)c2C)cc1 6.31 µM [inhibitor, single point]
COc1ccc(S(=O)(=O)N(C)c2ccc(C(=O)N3CCCC3)cc2)cc1OC 15.8 µM [activator, partial curve]
CCOCCCNS(=O)(=O)c1ccc(NC(=O)c2ccccc2)cc1 14.1 µM [activator, single point]
Cc1ccc(C2=NN(C(=O)c3ccco3)C(O)(C(F)(F)F)C2)cc1 (stereo unspecified) 20 µM [inhibitor, single point]
COc1cccc(N2CCN(C3CC(=O)N(c4ccc(Cl)c(Cl)c4)C3=O)CC2)c1 (stereo unspecified) 17.8 µM [inhibitor, single point]
Cc1ccc(NC2CC(=O)N(c3ccc(C)cc3)C2=O)cc1 (stereo unspecified) 6.31 µM [activator, full curve, poor fit]
CNc1nc(NN)nc(Nc2ccccc2)n1 15.8 µM [inhibitor, single point]
COC(=O)[C@@H]1CC[C@H](C)[C@@H](c2ccc(C)cc2)N1C(=O)c1ccc(/C=N/O[C@@H](C)c2cn([C@H](CO)Cc3ccccc3)nn2)cc1 22.4 µM [activator, single point]
COc1nn(-c2ccccc2)c(=O)c(Cl)c1Cl 15.8 µM [inhibitor, single point]
CCOc1ccc(N=C2NC(=O)C(CC(=O)Nc3ccccc3)S2)cc1 (stereo unspecified) 35.5 µM [activator, single point]
CCCOc1ccc(-c2c(C(=O)N/N=C(\C)COc3ccccc3)nnn2-c2nonc2N)cc1 35.5 µM [inhibitor, single point]
CC(=O)c1cnc2nc(SCc3cccc(C)c3)nn2c1C 17.8 µM [activator, partial curve]
O=C1CC(Nc2ccc(N3CCOCC3)cc2)C(=O)N1c1ccccc1F (stereo unspecified) 35.5 µM [activator, partial curve, poor fit]
COc1cc([N+](=O)[O-])c(N2CCOCC2)c([N+](=O)[O-])c1OC 4.47 µM [activator, full curve]
O=C(NCCNc1ccc([N+](=O)[O-])cc1C(F)(F)F)c1cccc(F)c1 17.8 µM [activator, single point]
Clc1cccc(Oc2ncc(CN3CCOCC3)s2)c1 17.8 µM [activator, single point]
COc1cccc(-c2nc(-c3ccccc3)c(-c3ccccc3)[nH]2)c1OCC(=O)O 25.1 µM [activator, single point]
CN(C)c1nc2n(c(=O)n1)C(C#N)CS2 (stereo unspecified) 0.0891 µM [inhibitor, full curve, poor fit]
COCCCn1c(=S)[nH]c2ccc(N3CCOCC3)cc2c1=O 12.6 µM [inhibitor, single point]
